What all share (test): normalised response (% of control), CellTox Green; higher = less cell death (100 = DMSO, 0 = benzethonium chloride kill control)
Holding throughout (conditions): incubation time: 72 h

The test system of one experiment is BT-474. The method, then: (§1)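 DSRT, 72 h incubation, CellTox Green / CellTiter-Glo readout. Signal is normalised to DMSO and benzethonium chloride controls. Value is the normalised response at the lowest tested concentration.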
A further experiment concerns BT-549. Here is the method: as §1
The test system of a further experiment is CAL-120. The method, then:
as §1

The subject of the next experiment is CAL-148. The method, then: as §1
For the next experiment, the system named is CAL-51. The method, then: as §1
Another experiment concerns CAL-85-1. Here is the method: as §1
The next experiment concerns DU-4475. Here is the method:
as §1

A further experiment concerns HCC1599. Here is the method: as §1
The subject of another experiment is HCC1937. The method, then: as §1
The next experiment relates to Hs578T. Here is the method:
as §1

The next experiment has as its system MCF-10A. Here is the method:
as §1

The next experiment has as its system MDA-MB-231. Here is the method:
as §1

Another experiment deals with MDA-MB-436. Here is the method: as §1
A further experiment relates to MDA-MB-453. Here is the method: as §1
Another experiment concerns MDA-MB-468. The method, then: as §1
A further experiment relates to MFM-223. Here is the method: as §1

Most entries show no effect beyond the scatter of the controls.

On to `Cc1ccc(C(=O)N(CCCN)[C@@H](c2oc3cc(Cl)ccc3c(=O)c2Cc2ccccc2)C(C)C)cc1` (0.01 nM), for which the normalised response was 99.1% in the experiment with BT-474; 90.6% in the experiment with BT-549; 100% in the experiment on CAL-120; 95.9% in the experiment with CAL-148; 81.2% in the experiment with CAL-51; 90.3% in the experiment on CAL-85-1. The normalised response stood at 101% in the experiment with DU-4475; 104% with HCC1599; 96.4% with HCC1937; 96.6% in the experiment on Hs578T; 106% in the experiment on MCF-10A; 103% in the experiment with MDA-MB-231. Moreover, the normalised response in the experiment on MDA-MB-436 is 88.7%; in the experiment with MDA-MB-453, 94.1%; in the experiment with MDA-MB-468 it was 64.5%; in the experiment on MFM-223, 90.4%.

With `CCn1c(-c2nonc2N)nc2cnc(Oc3cccc(NC(=O)c4ccc(OCCN5CCOCC5)cc4)c3)cc21` (1 nM), the normalised response was 97.6% in the experiment with BT-474; 96.1% in the experiment on BT-549; -16.4% in the experiment with CAL-120; 101% in the experiment with CAL-148; 105% in the experiment on CAL-51; 101% in the experiment on CAL-85-1. Moreover, the normalised response in the experiment with DU-4475 came out at 99.5%; in the experiment on HCC1599, 103%; in the experiment with HCC1937, 105%; in the experiment with Hs578T it was 100%; in the experiment with MCF-10A it was 100%; in the experiment with MDA-MB-231 it was 115%. Further, the normalised response is 85.2% in the experiment with MDA-MB-436, 96.4% in the experiment on MDA-MB-453, 124% with MDA-MB-468 and 102% with MFM-223.

Consider `CC(C)C(=O)Nc1ccc([N+](=O)[O-])c(C(F)(F)F)c1` [Flutamide] (1 nM), for which the normalised response was found to be 98.1% in the experiment with BT-474; 101% in the experiment with BT-549; 96.5% in the experiment on CAL-120; 98.5% in the experiment on CAL-148; 110% in the experiment with CAL-51; 105% with CAL-85-1. Further, the normalised response in the experiment with DU-4475 was 99.3%; in the experiment with HCC1599, 97.3%; with HCC1937, 112%; with Hs578T, 105%; in the experiment with MCF-10A it was 102%; in the experiment with MDA-MB-231, 105%. For the same compound, the normalised response is 82.1% in the experiment on MDA-MB-436, 106% with MDA-MB-453, 97.4% in the experiment with MDA-MB-468 and 101% with MFM-223.

The values above are taken from the supplement of paper PMC4862054.
